From the supplement of paper PMC9254222
In all, about 1,100 compounds were measured (“Renilla luciferase signal (cell health) relative to plate median”: median about 0.97, highest 2% from about 1.6 on). Only a part is listed here, and it is no random draw.

System: HEK293T (UBE3A T485A transfected, BAR Wnt reporter)
Assay: Renilla luciferase signal (cell health) relative to plate median (fold (linear ratio)); higher = higher Renilla signal
Conditions: 24 h
Outline: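 Each value averages four biological replicates in HEK293T cells grown at 4500 cells/well in DMEM with 10% FBS at 37°C and 5% CO2. The cells were transfected with a BAR firefly luciferase Wnt reporter, TK-Renilla and an expression plasmid, then four hours later robotically treated with the chemicals at 0.01–100 uM for 24 h. Dual-Glo luciferase signals were median-centred per plate, with the firefly/Renilla ratio reported as Wnt activity and raw Renilla as cell health.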

Structure (SMILES)	Renilla luciferase signal (concentration: 0.01 uM)	Renilla luciferase signal (concentration: 0.1 uM)	Renilla luciferase signal (concentration: 1 uM)	Renilla luciferase signal (concentration: 10 uM)	Renilla luciferase signal (concentration: 100 uM)
COc1cnc(OC)n2nc(NS(=O)(=O)c3c(OCC(F)F)cccc3C(F)(F)F)nc12 [Penoxsulam]	1.28	1.04	0.914	0.989	1.14
COc1ccc(C)cc1N [2-Methoxy-5-methylaniline]		0.939	0.867	1.03	1.25
CC(C)(OO)c1ccccc1 [Cumene hydroperoxide]		1.15	1.12	1.05	1.4
CCCCCOC(=O)c1ccccc1C(=O)OCCCCC [Dipentyl phthalate]		0.95	0.861	0.91	1.18
Oc1ccc(Cl)cc1Cl [2,4-Dichlorophenol]		0.8	0.798	0.873	0.949
C[C@]12CCC(=O)C=C1CC[C@@H]1[C@@H]2CC[C@]2(C)C(=O)CC[C@@H]12 [4-Androstene-3,17-dione]		1.08	1.09	0.947	0.164
CCOP(=S)(OCC)Oc1nc(Cl)c(Cl)cc1Cl [Chlorpyrifos]		0.74	0.805	0.866	0.73
C=CC(=O)OCCCCCC(C)C [Isooctyl acrylate]		0.895	0.841	0.931	1.07
CC(C)C1(C)N=C(c2ncccc2C(=O)O)NC1=O (stereo unspecified) [Imazapyr]	0.822	0.714	0.895	0.959	1.42
CNC(=O)Oc1cccc2ccccc12 [Carbaryl]	0.778	0.776	0.818	0.647	0.374
C/C(=N\C#N)N(C)Cc1ccc(Cl)nc1 [Acetamiprid]	0.746	0.945	0.969	0.857	1.2
O=C(Nc1ccc2[nH]ccc2c1)c1cc2cc(F)ccc2n1Cc1cccc(F)c1		1.07	1.02	0.543	0.0428
O=C(O)C1C2CCC(O2)C1C(=O)O (stereo unspecified) [Endothal]		0.975	0.898	0.607	0.0298
CS(=O)(=O)c1cc(C(F)(F)F)ccc1C(=O)c1cnoc1C1CC1 [Isoxaflutole]	0.938	0.74	0.954	0.778	2.79
COP(=S)(OC)Oc1ccc([N+](=O)[O-])cc1 [Methyl parathion]	0.993	0.941	0.939	1.07	0.963
CN1C2CC(OC(=O)C(CO)c3ccccc3)CC1C1OC12 (stereo unspecified) [Scopolamine]	0.78	0.722	0.931	0.834	1.62
ClCCOCCCl [Bis(2-chloroethyl) ether]		1.05	0.922	0.95	1.25
CCC(C)C1OC2(C=CC1C)CC1CC(CC=C(C)C(OC3CC(OC)C(OC4CC(OC)C(O)C(C)O4)C(C)O3)C(C)C=CC=C3COC4C(O)C(C)=CC(C(=O)O1)C34O)O2 (stereo unspecified) [Abamectin]	0.929	1.08	0.956	0.403	0.0306
O=[N+]([O-])c1c(Cl)c(Cl)c(Cl)c(Cl)c1Cl [Pentachloronitrobenzene]	1	1.06	0.927	0.981	1.34
CC1(C)C(C=C(Cl)Cl)C1C(=O)OC(C#N)c1cccc(Oc2ccccc2)c1 (stereo unspecified) [Cypermethrin]	1.25	1.16	1.03	1.16	0.901

Structure (SMILES)	Renilla luciferase signal (concentration: 0.01 uM)	Renilla luciferase signal (concentration: 0.1 uM)	Renilla luciferase signal (concentration: 1 uM)	Renilla luciferase signal (concentration: 10 uM)	Renilla luciferase signal (concentration: 100 uM)
Cc1cc(-c2ccc(N)c(C)c2)ccc1N [3,3'-Dimethylbenzidine]		0.965	1	0.918	0.872
c1ccc2c(c1)Nc1ccccc1S2 [Phenothiazine]		0.84	0.859	0.971	0.425
CC(C1CC1)C(O)(Cn1cncn1)c1ccc(Cl)cc1 (stereo unspecified) [Cyproconazole]	1.42	1.03	1.06	1.02	0.867
CC(C)COC(=O)c1ccccc1C(=O)OCC(C)C [Diisobutyl phthalate]		0.825	0.827	0.867	1.01
CC(C)(C)OOC(=O)c1ccccc1 [tert-Butyl perbenzoate]		1.03	1	0.978	1.1
CC(C)(C)c1ccc(CCOc2ncnc3ccccc23)cc1 [Fenazaquin]	0.978	1.05	0.95	0.255	0.141
O=C(N[C@H]1CN2CCC1CC2)c1cc2ccoc2cn1		1.07	1.02	0.999	0.947
CCOP(=S)(OCC)SCSC(C)(C)C [Terbufos]		0.87	0.914	0.933	1.23
Oc1ccccc1-c1ccccc1 [2-Phenylphenol]	1.08	1.08	0.948	1.01	0.987
[Na+].[O-][n+]1ccccc1[S-] [Sodium (2-pyridylthio)-N-oxide]		1.06	0.913	1.01	0.0174
Nc1ccc2ccccc2c1 [2-Naphthylamine]		1.07	0.945	0.947	0.792
Clc1ccc(C(c2ccc(Cl)cc2)C(Cl)(Cl)Cl)cc1		0.841	0.863	0.92	0.995
Cc1nn(-c2cc(NS(C)(=O)=O)c(Cl)cc2Cl)c(=O)n1C(F)F [Sulfentrazone]	1.01	1.05	0.889	1.04	1.21
Oc1ccc(C(c2ccc(O)cc2)(C(F)(F)F)C(F)(F)F)cc1 [Bisphenol AF]		1.13	0.983	0.958	0.176
CCCCCCCCn1sccc1=O [Octhilinone]		0.906	0.835	0.471	0.0285
Cc1cnc(C2=NC(=O)C(C)(C(C)C)N2)c(C(=O)O)c1 (stereo unspecified) [Imazapic]	1.11	1.17	1.18	1.14	1.72
c1ccc(N=Nc2ccccc2)cc1 [Azobenzene]		0.917	0.96	0.998	1.29
CCCSC(=O)N(CCC)CCC [Vernolate]		0.745	0.776	0.829	1.32
COCC(=O)N(c1c(C)cccc1C)C(C)C(=O)OC (stereo unspecified) [Metalaxyl]	0.822	1.05	1.14	1.22	1.42
COc1cc(C=O)cc2c1[C@H](COC(N)=O)[C@]1(OC(C)=O)ON2C[C@H]2[C@@H]1N2C(C)=O		0.566	0.0435	0.0233	0.0248

3 entries from above, sorted by heavy-atom count, low to high.
Structure (SMILES)	Renilla luciferase signal (concentration: 0.01 uM)	Renilla luciferase signal (concentration: 0.1 uM)	Renilla luciferase signal (concentration: 1 uM)	Renilla luciferase signal (concentration: 10 uM)	Renilla luciferase signal (concentration: 100 uM)
Oc1ccc(Cl)cc1Cl [2,4-Dichlorophenol]		0.8	0.798	0.873	0.949
CC(C1CC1)C(O)(Cn1cncn1)c1ccc(Cl)cc1 (stereo unspecified) [Cyproconazole]	1.42	1.03	1.06	1.02	0.867
Cc1nn(-c2cc(NS(C)(=O)=O)c(Cl)cc2Cl)c(=O)n1C(F)F [Sulfentrazone]	1.01	1.05	0.889	1.04	1.21
